According to the supplement of paper PMC6078165:
The reference is the same well before dosing, and untreated signal decays as well.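 Labels refer to human fibroblasts, largely primary: uterine (C12385, HUF), lung (H6013), bone (Hs27A), adrenal (HADF), skin (WS1), plus mammary HMF and breast cancer-associated Hs343T. Cancer lines are basal-like or mesenchymal-like triple-negative breast cancer. The paper counts as hits responses shifting over 3x the replicate standard deviation. The tissue of the other fibroblasts is not given here.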 Numbered stars: 1 amine (or outer) side, 2 acyl side, 3 side chain; on linkers, the order of the positions; unused ones are H or OH. Bridge positions count the residues as written; N and C are the ends. Square brackets hold non-standard residues; d marks the D form. Peptide text beside a SMILES is read from it. I, II: the chains in the order shown. Actinocin(9to1) = Cc1c2oc3c(C)ccc(C(=O)[*:1])c3nc-2c(C(=O)[*:2])c(N)c1=O; NMeV = CN[C@H](C(=O)O)C(C)C; Sar = CNCC(=O)O

Test system: Hs578T
Assay: relative JC-1 red fluorescence (viability) vs pre-drug, coculture with fibroblast (fraction); higher = more viable cancer cells
Details: 0.1 µM
Protocol: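 JC-1 labelled TNBC cells cocultured 1:1 (1,500 cells each) with CellTrace Violet stained primary or stromal fibroblasts in 384-well plates in FluoroBrite medium, treated with one of 42 anticancer drugs at 0.1, 1, 10 or 100 uM. JC-1 red fluorescence (mitochondrial integrity in cancer cells only) was read by plate reader every 8 h for 72 h. Values are normalised to each well's pre-drug value. The stock of one drug was tenfold lower, so its dose labels may be too high.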

Cc1c2oc3c(C)ccc(C(=O)N[C@@H]4C(=O)N[C@H](C(C)C)C(=O)N5CCC[C@H]5C(=O)N(C)CC(=O)N(C)[C@@H](C(C)C)C(=O)O[C@@H]4C)c3nc-2c(C(=O)N[C@@H]2C(=O)N[C@H](C(C)C)C(=O)N3CCC[C@H]3C(=O)N(C)CC(=O)N(C)[C@@H](C(C)C)C(=O)O[C@@H]2C)c(N)c1=O [Dactinomycin] (I: T[dV]P[Sar][NMeV] / II: T[dV]P[Sar][NMeV]; ester I:1-I:C, II:1-II:C; linker I:N-II:N via Actinocin(9to1))
relative JC-1 red fluorescence
Details | 40 h | 48 h | 56 h | 64 h | 72 h
coculture fibroblast: C12385 | – | 0.496 | 0.468 | 0.449 | 0.439
coculture fibroblast: H6013 | – | 0.707 | 0.707 | 0.713 | 0.697
coculture fibroblast: H6019 | – | 0.538 | 0.515 | 0.507 | 0.493
coculture fibroblast: H6076 | – | 0.597 | 0.536 | 0.524 | 0.517
coculture fibroblast: H6231 | – | 0.565 | 0.529 | 0.519 | 0.509
coculture fibroblast: HADF | – | 0.608 | 0.569 | 0.571 | 0.553
coculture fibroblast: HCFa | – | 0.648 | 0.642 | 0.647 | 0.637
coculture fibroblast: HCPF | 0.678 | 0.652 | 0.634 | 0.607 | 0.592
coculture fibroblast: HHSteC | 0.699 | 0.691 | 0.697 | 0.694 | 0.686
coculture fibroblast: HMF | 0.674 | 0.634 | 0.594 | 0.581 | 0.582
coculture fibroblast: HPFa | 0.653 | 0.6272 | 0.606 | 0.6098 | 0.5935
coculture fibroblast: HUF | 0.534 | 0.502 | 0.482 | 0.483 | 0.484
coculture fibroblast: Hs27A | 0.753 | 0.7473 | 0.73727 | 0.738 | 0.696
coculture fibroblast: Hs343T | 0.626 | 0.582 | 0.538 | 0.514 | 0.522
coculture fibroblast: WS1 | 0.516 | 0.503 | 0.4752 | 0.4812 | 0.487

Details | relative JC-1 red fluorescence
48 h | 0.636
56 h | 0.633
64 h | 0.608
72 h | 0.633
